# PubChem BioAssay AID1259331 | Drosophila RNAi Screening Center – 2017
# Purpose: 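Fly transmembrane-protein genes that affect zinc toxicity in cultured cells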 (primary screen)
# Cell system: Drosophila S2R+ cells
# Reagent: long dsRNA against Drosophila genes
# Duration: 5 days (4 days knock-down, then 1 day zinc)
# Treatment: zinc chloride at 15 mM final level for 1 day
# Read-out: 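Total cellular ATP measured by luciferase luminescence as a viability proxy, turned into Z scores from three plate copies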
# Reading the numbers: mean Z score: higher = more ATP than other wells, better survival under zinc; ATP luminescence: higher = more ATP, more viable cells
# Rule for the call: 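Hit when the absolute Z score is greater than 1.5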
# Meaning of the calls: active = hit, ATP up or down; inactive = not a hit
# Shown is an unselected part of about 3,100 deposited reagents. 126 of them (4.1%) were called active. 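Calls are per reagent; zinc was so toxic that few knock-downs lowered ATP further, so most hits raise ATP.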 Raw values are not corrected between plates. A number with no mark means an inactive call. Reagents against one gene are numbered here. Names joined by + are all predicted targets of the reagent. Not given: the amount of reagent.
The first 7 records as a preview:
Gene,dsRNA no.,mean Z score,"ATP luminescence, replicate 1","ATP luminescence, replicate 2"
Cds + Setx,1,0.0235,59409,58145
SdhD,1,-0.0756,34193,55813
SdhD,2,0.0222,56225,56859
wus,1,-0.612,38273,38839
wus,2,1.2,67989,60855
uzip,1,0.471,33302,34553
uzip,2,-0.403,44184,44360

The list itself, from the start:
Gene,dsRNA no.,mean Z score,"ATP luminescence, replicate 1","ATP luminescence, replicate 2"
Cds + Setx,1,0.0235,59409,58145
SdhD,1,-0.0756,34193,55813
SdhD,2,0.0222,56225,56859
wus,1,-0.612,38273,38839
wus,2,1.2,67989,60855
uzip,1,0.471,33302,34553
uzip,2,-0.403,44184,44360
CG17600,1,0.787,55093,45680
CG17600,2,0.344,46366,54956
CG17600,3,-0.0761,56345,59586
Vha100-5,1,-0.236,51149,36233
Vha100-5,2,-0.611,57237,47274
CG3829,1,-0.477,28245,30233
Ir100a,1,-0.262,47514,51509
Ir100a,2,0.385,53293,52658
Orai,1,0.283,47360,53883
Orai,2,0.0637,56135,58163
Yif1,1,-0.111,66291,62090
Gat,1,-0.752,51595,55590
Gat,2,0.162,59495,55350
5-HT7,1,-0.503,39127,39765
5-HT7,2,0.352,59757,58368
frj,1,2.45 (active),92415,88999
frj,2,-0.461,56876,51218
Grl43a,1,-0.249,75604,66389
brv3,1,-0.0143,58161,55110
Grl65a,1,-0.0513,41822,45885
Grl65a,2,-0.193,49263,51595
Gr92a,1,0.217,49143,50887
Gr92a,2,-0.519,50315,52744
rho,1,0.0187,69361,74558
rho,2,-0.447,53824,48749
CG32263,1,0.531,58317,66480
CG32263,2,0.466,69979,67149
app,1,0.116,42611,42349
app,2,0.433,65434,64971
CG8534,1,-0.358,29736,53190
Or24a,1,-0.23,45988,34559
babo,1,-0.424,88092,57597
babo,2,0.224,48200,50532
babo,3,-0.232,46023,43657
CadN2,1,0.232,47840,47120
CadN2,2,-0.3,69773,55590
Nemp,1,0.513,52624,53258
Nemp,2,0.71,74849,65142
opm,1,1.17,65194,60855
opm,2,0.72,72345,72637
LBR,1,0.0536,31125,33171
LBR,2,-0.297,54493,59191
Serinc,1,-0.305,27730,32033
Eato,1,-0.0807,54390,55813
Eato,2,-0.354,48234,38788
CG7573,1,0.141,78623,60460
Or65a,1,-0.0972,43630,44085
Or65a,2,0.218,64508,61266
mth,1,-0.513,27578,27370
mth,2,-0.0235,51869,44668
CG42329,1,-0.112,45985,44582
rst,1,-0.42,70544,53121
rst,2,-0.586,53138,59586
rst,3,0.378,55676,56083
trpl,1,0.251,88761,76324
trpl,2,0.0211,47154,51441
GC1,1,-0.451,34158,49898
GC1,2,-0.424,53224,56534
RYa-R,1,-0.58,39782,37365
Or56a,1,-0.072,68468,70602
Or56a,2,-0.959,38599,36782
drd,1,0.178,62518,75621
drd,2,-0.584,56862,40167
CG7255,1,-0.361,31690,32599
CG31668,1,0.152,46623,48046
CG31668,2,-0.124,52024,53104
CG11110,1,0.423,75467,80270
CG11110,2,1.23,86239,67715
CG7218,1,-0.654,37519,38668
CG7218,2,-1.11,43725,40011
Corin,1,-0.481,53464,54510
Corin,2,0.243,63187,61215
PIG-C,1,0.139,81098,63873
Tmtc3,1,-0.111,29393,31005
O-fut1,1,0.14,28859,35136
O-fut1,2,0.0121,59209,56585
CG4743,1,-0.243,35873,55539
Tim17b1,1,0.308,80647,67920
Tim17b1,2,0.191,56019,61987
CG9536,1,-0.13,55556,53138
CG9536,2,-0.0934,40896,62827
